# Measured values published in PubChem BioAssay AID1347076 (National Center for Advancing Translational Sciences (NCATS), 2019).
# Screen size: about 400,000 compounds; about 13,000 (3.2%) were called active. Inconclusive results, whose numbers are uncertain, are shown with a selection of clear calls. Calls come from the whole dose curve; as a rule, active = well fitted cell-killing curve with a large enough effect; inconclusive = small, poorly fitted or top-dose-only effect, or effect the other way; inactive = flat fitted curve, though single readings scatter. Potencies of inconclusive entries are doubtful fits and often do not repeat.
# Test: qHTS assay for MDR1-selective chemotherapeutics: Primary screen using the drug-selected MDR subline cells KB-V1; note: nearly all actives have a fitted effect of over 60% in size
# Conditions: KB-V1 MDR cells viability, CellTiter-Glo, 72 h; activity change, negative = cytotoxicity: at 46.1 µM (top of the series)
# Outline: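 Cytotoxicity via CellTiter-Glo luminescence after 72 h compound exposure at 37 degrees C. Cells: drug-selected KB-V1 line, DMEM phenol-red free plus 10% FBS. Compounds tested at multiple concentrations; normalized data fitted to concentration-effect curves.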
# % is set by controls: 0 for no effect and ±100 for the full control effect; potency is the fitted concentration of half-maximal effect.
SMILES,Potency,"activity change, negative = cytotoxicity"
CCC(=O)Nc1ccc(C(=O)NNC(=O)C(c2ccccc2)c2ccccc2)cc1,"inconclusive: 25.9 µM [rising, partial curve, poor fit]",
Cc1ccc(S(=O)(=O)N2CC(=O)Nc3ccccc32)c(C)c1NS(C)(=O)=O,"inconclusive: 18.4 µM [rising, single point]",
CC1=CC(C)(C)N(S(=O)(=O)c2ccc(C)cc2)c2ccccc21,"inconclusive: 13 µM [cytotoxic, partial curve]",
CCN1CCN(CC(=O)Nc2cc(S(=O)(=O)N3CCCCC3)ccc2Cl)CC1,inactive,
Cn1c(=O)c2ccccc2n2c(CCl)nnc12,"inconclusive: 29.1 µM [cytotoxic, single point]",
COc1ccccc1-c1nnc2sc(COc3ccc(Cl)cc3Cl)nn12,active: 18.4 µM,
CCOC(=O)COc1ccc(CC)cc1C(=O)c1ccn2nc(-c3ccc(Cl)cc3)cc2n1,"inconclusive: 1.03 µM [cytotoxic, full curve]",
COc1ccc(CSc2nc(C)cc(=O)[nH]2)cc1Br,active: 18.4 µM,
O=c1cc(-c2ccccc2)[nH]n1-c1ccc([N+](=O)[O-])cc1,"inconclusive: 29.1 µM [cytotoxic, single point]",
N#CC(c1ccccc1)C(CC(=NO)c1ccccc1)c1ccccc1 (stereo not given),"inconclusive: 20.6 µM [cytotoxic, single point]",
COC(=O)c1sc2cccc(F)c2c1S(=O)(=O)NCc1ccc(Cl)cc1,"inconclusive: 29.1 µM [rising, single point]",
CCOC(=O)c1c(NC(=O)C(C)Sc2cn(CCNC(=O)c3ccccc3OC)c3ccccc23)sc2c1CCC2 (stereo not given),"inconclusive: 1.64 µM [cytotoxic, full curve, poor fit]",
O=C(Nc1cc(Cl)ccc1-n1cncn1)c1ccc([N+](=O)[O-])o1,"inconclusive: 25.9 µM [cytotoxic, partial curve, poor fit]",
CN(Cc1ccco1)C(=O)C1CCN(c2nnc(-n3cccc3)s2)CC1,"inconclusive: 29.1 µM [cytotoxic, single point]",
Cc1noc(C)c1CSc1nc2cc(S(=O)(=O)N3CCOCC3)ccc2o1,"inconclusive: 7.31 µM [cytotoxic, partial curve]",
Cc1cccc2nc(Cn3c(=O)n(CCC(=O)NCc4ccco4)c(=O)c4ccccc43)cc(=O)n12,"inconclusive: 25.9 µM [cytotoxic, single point]",
COc1ccc(-c2noc(N3CCN(c4ccc(C)cc4)C(C)C3)n2)cc1OC (stereo not given),"inconclusive: 8.2 µM [cytotoxic, partial curve]",
Cc1cn(C2OC(COC(=O)c3ccccc3)C(OC(=O)c3ccccc3)C2OC(=O)c2ccccc2)c(=O)[nH]c1=O (stereo not given),"inconclusive: 32.6 µM [cytotoxic, single point]",
CNC(=O)c1cnc(-c2ccccc2)nc1-c1ccccc1,inactive,
O=[n+]1c2c(n([O-])c3c1CCC3)CCCC2,"inconclusive: 18.4 µM [rising, partial curve, poor fit]",
COc1c(Cl)cc(C(=O)Nc2cccnc2)cc1Cl,"inconclusive: 29.1 µM [cytotoxic, single point]",
CCOc1ccc(S(=O)(=O)NCc2ccccn2)c(C)c1C,"inconclusive: 29.1 µM [cytotoxic, single point]",

# Quoted at random: 4 entries already listed
SMILES,Potency,"activity change, negative = cytotoxicity"
Cc1noc(C)c1CSc1nc2cc(S(=O)(=O)N3CCOCC3)ccc2o1,"inconclusive: 7.31 µM [cytotoxic, partial curve]",
CCC(=O)Nc1ccc(C(=O)NNC(=O)C(c2ccccc2)c2ccccc2)cc1,"inconclusive: 25.9 µM [rising, partial curve, poor fit]",
CCOc1ccc(S(=O)(=O)NCc2ccccn2)c(C)c1C,"inconclusive: 29.1 µM [cytotoxic, single point]",
CNC(=O)c1cnc(-c2ccccc2)nc1-c1ccccc1,inactive,

# Further compounds:

SMILES,Potency,"activity change, negative = cytotoxicity"
O=C(O)c1ccc(OC2CSC2)cc1,"inconclusive: 2.06 µM [rising, full curve, poor fit]",
O=C(NCc1ccc(F)cc1F)[C@@H]1CCCN1C(=O)[C@@H]1CCCN1C(=O)c1cccc(Cl)c1,inactive,
O=C(Nc1ccccc1C(=O)NCCCN1CCOCC1)c1ccccc1,"inconclusive: 16.4 µM [rising, single point]",
CCc1cccc(NS(=O)(=O)c2ccc3c(c2)N(C)CCO3)c1,"inconclusive: 18.4 µM [cytotoxic, single point]",
CNC(=O)c1[nH]cnc1C(=O)Nc1ccccc1,,inconclusive: 19.6%
COc1ccc(N(CC(=O)N2CCc3ccccc3C2)S(C)(=O)=O)cc1Cl,inactive,
Cc1ccccc1-c1n[nH]c(=S)n1/N=C/c1ccc(-c2ccccc2Br)o1,"inconclusive: 16.4 µM [cytotoxic, partial curve, poor fit]",
Cc1c(O)ccc(/C=N/Nc2nc(-c3cccnc3)nc3ccccc23)c1O,"inconclusive: 20.6 µM [cytotoxic, single point]",
O=C(c1ccc2c(c1)N(Cc1ccc(F)cc1)C(=O)c1ccccc1S2(=O)=O)N1CCN(c2ccccn2)CC1,"inconclusive: 20.6 µM [cytotoxic, single point]",
Cn1c(O)c(C2=c3ccccc3=NC2=O)[nH]c1=S,inactive,
CCSc1nnc2c(n1)OC(c1sccc1C)N(C(C)=O)c1ccccc1-2 (stereo not given),"inconclusive: 18.4 µM [cytotoxic, partial curve]",
Cc1c(C(=O)O)cccc1-n1c(C)cc(/C=N/NC(=O)c2cc3ccccc3o2)c1C,"inconclusive: 18.4 µM [rising, single point]",
CCc1ccc2c(CC(=O)NNC(=O)c3ccncc3)coc2c1,"inconclusive: 8.2 µM [rising, partial curve]",
O=C(N/N=C1\C/C(=N\NC(=O)c2ccncc2)c2ccccc21)c1ccncc1,"inconclusive: 29.1 µM [cytotoxic, single point]",
Cc1ccc(C(c2c(C)nn(-c3ccccc3)c2N)c2c(C)nn(-c3ccccc3)c2N)cc1,"inconclusive: 1.46 µM [cytotoxic, partial curve, poor fit]",
Cc1ccc(C(=O)NNC(=O)c2ccccc2O)cc1S(=O)(=O)N1CCCCC1,"inconclusive: 16.4 µM [cytotoxic, single point]",
Cc1ccc(OCC(=O)Nc2ccc3nc(SCC(N)=O)sc3c2)cc1,inactive,
Cc1ccc(NC(=O)c2cc(S(=O)(=O)N(C)C)ccc2N2CCCC2)cc1F,"inconclusive: 14.6 µM [cytotoxic, single point]",
CCC(C)(C)C1CCC2(CC1)NC(=O)N(CC(=O)N(C)Cc1ccc3c(c1)OCCO3)C2=O (stereo not given),inactive,
COc1ccc([C@H]2CC(=O)C=C(c3cc(C=O)ccc3OC)C2)cc1,"inconclusive: 29.1 µM [cytotoxic, single point]",
CC(CCc1ccccc1)NC(=O)C(=O)NCc1ccccc1 (stereo not given),"inconclusive: 4.61 µM [cytotoxic, partial curve, poor fit]",
CCOC(=O)C1CCCN(S(=O)(=O)c2cc3c(cc2C)NC(=O)CO3)C1 (stereo not given),inactive,

SMILES,Potency,"activity change, negative = cytotoxicity"
O=C(NCc1cccc(F)c1)c1ccc2nc(N3CCCCC3)sc2c1,"inconclusive: 0.0231 µM [cytotoxic, full curve]",
Fc1ccc(COc2ccc(Br)cc2CNCC2CCCO2)cc1 (stereo not given),inactive,
COc1cc(Cl)c(NC2=CC(=O)C(=O)c3ccccc32)c(OC)c1,active: 8.2 µM,
Cc1onc(-c2c(Cl)cccc2Cl)c1C(=O)N=C(N)N1CC(C)OC(C)C1 (stereo not given),"inconclusive: 2.06 µM [cytotoxic, full curve]",
COc1cc(NC(=O)CSc2nc3[nH]ncc3c(=O)n2-c2ccccc2C)cc(OC)c1OC,"inconclusive: 3.26 µM [rising, full curve, poor fit]",
CCC(NS(=O)(=O)c1ccc(C)cc1)C(=O)N1CCC2(O)CCCCC2C1 (stereo not given),"inconclusive: 23.1 µM [cytotoxic, single point]",
Cc1ccc(/C=C/C(=O)O)cc1S(=O)(=O)NCc1ccco1,"inconclusive: 29.1 µM [rising, single point]",
COc1ccc(S(=O)(=O)NNC(=O)Nc2ccc(C)cc2C)c(OC)c1,inactive,
CCCn1nc(NC(=O)c2cccs2)c2cc3ccccc3nc21,"inconclusive: 20.6 µM [cytotoxic, partial curve]",
CCCCn1c(N)c(N(CCOC)C(=O)c2cc(S(=O)(=O)N3CCOCC3)ccc2Cl)c(=O)[nH]c1=O,inactive,
O=c1oc(-c2cccs2)nc2sc3c(c12)CCCCC3,"inconclusive: 18.4 µM [cytotoxic, single point]",
NC(=O)c1ccccc1NC(=O)/C=C/c1ccccc1,"inconclusive: 18.4 µM [cytotoxic, single point]",
CC(=O)Nc1ccc(NS(=O)(=O)c2ccc(Cl)s2)cc1,"inconclusive: 0.0073 µM [cytotoxic, full curve, poor fit]",
C=CCn1c(=O)n2ncnc2c2c3c(sc21)CCCC3,active: 14.6 µM,
CCN(CC)S(=O)(=O)c1ccc(Cl)c(C(=O)NCc2ccco2)c1,inactive,
Cc1ccc(N(CC(=O)Nc2cc(C)cc(C)c2)S(=O)(=O)c2c(C)noc2C)cc1,"inconclusive: 32.6 µM [cytotoxic, single point]",
CC(NC(=O)CSc1ncnc2nc[nH]c12)c1ccccc1 (stereo not given),"inconclusive: 20.6 µM [rising, single point]",
C=C(C)c1cccc(C(C)(C)NC(=O)N2CCN(c3ncccn3)CC2)c1,"inconclusive: 20.6 µM [cytotoxic, single point]",
Cc1nn(-c2ccc(F)cc2)c(-n2cccc2)c1C(=O)N1CCN(c2ccccc2F)CC1,active: 10.3 µM,
CCCC(=O)N1CCN(c2ccc(NC(=O)c3ccc(N4CCCC4)c([N+](=O)[O-])c3)cc2Cl)CC1,"inconclusive: 20.6 µM [cytotoxic, partial curve, poor fit]",
COC(=O)[C@]1(Cc2ccccc2)N[C@H](CN(C)C(=O)Nc2ccc(C(F)(F)F)cc2)[C@@H]2C(=O)N(Cc3ccccc3)C(=O)[C@@H]21,"inconclusive: 25.9 µM [cytotoxic, partial curve, poor fit]",
